Source: patent publication US10100001B2, “Adenylyl cyclase inhibitors for neuropathic and inflammatory pain” (Purdue Research Foundation, priority 2015, dated 2018)

Protein sequences, listed by entry. Tags and fused reporters are not part of them. Lines headed by an entry give the natural chain unless they say otherwise; changes in a name come on top.
UniProt Q08828: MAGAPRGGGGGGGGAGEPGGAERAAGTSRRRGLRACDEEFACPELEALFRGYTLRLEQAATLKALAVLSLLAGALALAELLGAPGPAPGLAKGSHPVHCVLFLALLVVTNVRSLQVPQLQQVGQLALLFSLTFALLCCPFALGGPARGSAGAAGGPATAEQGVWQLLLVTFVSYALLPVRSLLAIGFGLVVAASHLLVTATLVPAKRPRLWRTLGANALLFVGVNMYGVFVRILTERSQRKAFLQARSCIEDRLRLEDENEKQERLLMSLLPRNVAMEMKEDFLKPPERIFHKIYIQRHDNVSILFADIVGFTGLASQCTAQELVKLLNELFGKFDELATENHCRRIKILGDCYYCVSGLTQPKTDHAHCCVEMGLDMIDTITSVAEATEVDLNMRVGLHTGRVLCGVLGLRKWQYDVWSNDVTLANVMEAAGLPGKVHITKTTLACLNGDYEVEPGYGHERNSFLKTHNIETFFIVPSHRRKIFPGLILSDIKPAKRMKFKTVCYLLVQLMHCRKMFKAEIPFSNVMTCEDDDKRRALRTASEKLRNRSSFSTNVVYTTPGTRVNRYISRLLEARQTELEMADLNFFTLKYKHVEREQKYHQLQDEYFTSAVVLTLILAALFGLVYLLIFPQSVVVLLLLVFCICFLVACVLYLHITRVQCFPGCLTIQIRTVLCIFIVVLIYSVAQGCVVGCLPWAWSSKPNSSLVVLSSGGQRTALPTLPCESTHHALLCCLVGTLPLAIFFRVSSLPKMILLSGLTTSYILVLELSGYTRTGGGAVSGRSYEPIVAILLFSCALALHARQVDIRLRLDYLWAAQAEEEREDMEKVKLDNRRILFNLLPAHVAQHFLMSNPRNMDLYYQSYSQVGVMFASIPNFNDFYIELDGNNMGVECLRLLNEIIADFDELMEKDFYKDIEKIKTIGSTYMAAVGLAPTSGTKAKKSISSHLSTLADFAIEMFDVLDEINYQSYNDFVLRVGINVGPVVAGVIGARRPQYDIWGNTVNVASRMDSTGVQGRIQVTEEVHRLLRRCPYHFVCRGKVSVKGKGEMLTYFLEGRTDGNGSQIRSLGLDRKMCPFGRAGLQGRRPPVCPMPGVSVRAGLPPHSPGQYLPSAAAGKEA

Molecular target: T1, AC1 (Homo sapiens, UniProt Q08828)
T1 construct: expressed in transfected cells
Assay: Inhibition of A23187-mediated (Ca2+-stimulated) cAMP accumulation in HEK cells stably expressing AC1
Format: cell-based
Details: HEK293, read-out: AC1 Inhibition Percentage
Description: In certain aspects, the invention provides a method of treating neuropathic or inflammatory pain. Steps of the method include providing compounds of the invention as an adenylyl cyclase inhibitor. Compounds of the invention may be AC1 inhibitors. The compounds may have an IC50 in the μM range and more preferably in the nM or pM range. […] HEK cells stably expressing AC1 were treated with inhibitors for 30 min, and subsequently incubated with 3 μM A23187 in the presence of 2 mM IBMX. Data represent the average and S.E.M. of at least three independent experiments.
To determine whether compounds of the invention have an inhibitory effect on AC1 activity, HEK (human embryonic kidney) cells stably expressing AC1 (HEK-AC1) were employed and inhibition of Ca2+-stimulated cAMP accumulation was determined. A23187 is a Ca2+ ionophore, which promotes Ca2+ binding to calmodulin in the cells and, subsequent stimulation of AC1. […]
Cryopreserved HEK-AC1 cells were thawed in a 37° C. water-bath, resuspended in 10 ml optiMEM (Life Technologies, Grand Island, N.Y.) and centrifuged at 500×g for 5 min. […] Cells were then resuspended in 1 ml optiMEM and counted using a Countess automated cell counter (Life Technologies, Grand Island, N.Y.). […] Cyclic AMP accumulation was measured using Cisbio's dynamic 2 kit (Cisbio Bioassays, Bedford, Mass.) according to the manufacturer's instructions. […]

inhibition at 4 µM (4 μM compound): 22%
inhibition at 40 µM (40 μM compound): 89%
SMILES: C(=C\c1ccccc1)/CN1CCN(C(c2ccccc2)c2ccccc2)CC1 [Compound 2, 1-benzhydryl-4-cinnamylpiperazine, reference compound]
